These are yes or no findings as the source states them, for the method shown. Some binding calls cover weakened binding; strength is not graded here.
Key:
[1] = molecular target: T1, human serum albumin (HSA), full length (human, UniProt P02768 25-609); experiment: DB ELISA bin
T1 construct: mature; Immobilized on CM5 chip (SPR) or coated on plates (ELISA)

Amino acid sequences for entries named in this document (tags omitted). Residues count along the entry.
UniProt P02768, residues 25-609: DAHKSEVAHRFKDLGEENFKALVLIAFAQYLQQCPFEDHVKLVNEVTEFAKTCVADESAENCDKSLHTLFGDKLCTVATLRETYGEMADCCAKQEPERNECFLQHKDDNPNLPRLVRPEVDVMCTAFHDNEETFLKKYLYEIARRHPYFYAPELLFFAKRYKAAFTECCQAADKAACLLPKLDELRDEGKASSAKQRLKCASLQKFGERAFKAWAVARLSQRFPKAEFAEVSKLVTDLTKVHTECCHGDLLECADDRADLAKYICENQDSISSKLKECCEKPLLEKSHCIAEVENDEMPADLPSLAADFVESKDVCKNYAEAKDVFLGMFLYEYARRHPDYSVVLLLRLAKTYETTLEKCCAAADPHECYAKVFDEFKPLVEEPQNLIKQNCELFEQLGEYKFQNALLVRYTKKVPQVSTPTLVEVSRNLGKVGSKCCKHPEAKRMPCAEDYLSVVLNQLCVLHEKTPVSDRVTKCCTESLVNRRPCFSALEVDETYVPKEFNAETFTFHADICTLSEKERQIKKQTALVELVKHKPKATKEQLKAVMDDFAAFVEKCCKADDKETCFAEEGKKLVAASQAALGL

[2] = molecular target: T1, human serum albumin (HSA), full length; experiment: SPR off-rate screen (Biacore, CM5): albumin immobilised, Adnectin 500 nM as analyte, 120 s association, 800 s dissociation, 25 C; response normalised to 100 at start of dissociation; target HSA per legend paragraph 18 and paragraph 260, not printed on the sheet

B1: ADX_6727_F03 (I43Y as printed in Table 4; I43A in Table 7) (designed binder)
chain: MGVSDVPRDLEVVAATPTSLLISWDAPAVTVRYYRITYGREVQKYSDLGPLYAYQEFTVPGSKSTATISGLKPGVDYTITVYAVTGSGESPASSKPISINYRTEIDKPSQHHHHHH
notes: Full His6-tagged entry
B1 was tested, and the binding [1] was “binds” and the binding [2] was “binds”.

Reference: US20180258158A1 (Bristol-Myers Squibb, published 2018)
